Data on 1 compound can be found in patent US5310559A, “Device for controlled release and delivery to mammalian tissue of pharmacologically active agents incorporating a rate controlling member which comprises an alkylene-alkyl acrylate copolymer” (Hercon Laboratories Corporation, priority 1992, dated 1994).

A short description of this series: Flux through human skin from articles of FIG. 4 (Example V). The following applies: reservoir 10% drug.

Consider `CN1C2CC(OC(=O)C(CO)c3ccccc3)CC1C1OC12` (centres unmarked) [SCOPOLAMINE], for which the “Flux Thru Human Skin” value is, setting by setting: (with membrane 1.25 mil EMA (20% MA)) 0.32 ug/cm^2 /hour; (without membrane, 35% PVC resin, 55% ADMEX 760) 1.95 ug/cm^2 /hour.
